The text below walks through data of PubChem BioAssay AID260 (DTP/NCI, 2004).

The list does not hold the whole screen: it gathers tests that were run many times, whatever their T/C, doses with no T/C, and many T/C values between a quarter and a half above the control. Further doses and runs are listed elsewhere. T/C: endpoint of the treated group in % of that of the vehicle group. Some entries give survivors of the animals treated and no T/C: the source holds a T/C of zero for them, seemingly a mark for toxic or unscored doses. Some doses without a T/C left all or most animals alive at the check, yet need not have been tolerated: the source hardly ever lists a survival T/C far under the control, and the zero likely stands for such cases as well. Counts of survivors are from the toxicity check (mostly the fifth day) where no day follows; animals may have died later. Schedules are NCI's codes, read here as Q, the interval in days (D) or hours (H), X, the number of doses. Some doses were run more than once; the results are listed from low to high. For survival time, this PubChem deposit counts one and a half times the control or more as active, and values a quarter to a half above the control carry no call in these data; other NCI protocols may use other cut-offs. Some T/C values carry the count of animals alive at the toxicity check (mostly the fifth day); without a count, all were alive then.

For the test, the system named is CD2F1 mice, intracerebral L1210 leukemia, survival T/C. The test is described as follows: NCI In Vivo Anticancer Drug Screen. Data for tumor model L1210 Leukemia (intracerebral) in CD2F1 (CDF1) mice. Particulars: higher T/C = longer survival. As to the method: The antitumor activity of compounds was measured in mice bearing transplantable tumors. Survival or tumor size were measured and the results are expressed as the measurement made in the treated group (T) divided by the measurement made in the vehicle treated control group (C). The tumor model used in this assay is L1210 Leukemia (intracerebral) in CD2F1 (CDF1) mice

[1] abbreviates: T/C endpoint: median survival time, dose: 32.0 mg/kg/injection, schedule: Q01DX005 (ip), vehicle: saline.
[2] abbreviates: T/C endpoint: median survival time, dose: 1024.0 mg/kg/injection, schedule: Q01DX005 (ip), vehicle: saline.
Setting [3] is: T/C endpoint: median survival time, dose: 320.0 mg/kg/injection, schedule: Q01DX001 (ip), vehicle: saline.

In the case of `CCCN(C)C(=O)N(CCCl)N=O`, the T/C (T/C endpoint: median survival time, dose: 15.6 mg/kg/injection, schedule: Q01DX001 (ip), vehicle: saline + alcohol) was 128 % of control; the T/C (T/C endpoint: median survival time, dose: 31.3 mg/kg/injection, schedule: Q01DX001 (ip), vehicle: DMSO) is 126 % of control; the T/C (T/C endpoint: median survival time, dose: 62.5 mg/kg/injection, schedule: Q01DX001 (ip), vehicle: DMSO) is 138 % of control; the T/C (T/C endpoint: median survival time, dose: 125.0 mg/kg/injection, schedule: Q01DX001 (ip), vehicle: DMSO) is 145 % of control.

Turning to `CCN(CC)c1ccc2cc3ccc(=[N+](CC)CC)cc-3oc2c1`, the T/C (T/C endpoint: median survival time, dose: 4.0 mg/kg/injection, schedule: Q01DX005 (ip), vehicle: saline) was 133 % of control and the T/C (T/C endpoint: median survival time, dose: 8.0 mg/kg/injection, schedule: Q01DX005 (ip), vehicle: saline) is 126 % of control. Under setting [1], the survivor count is given as 0 of 10.

For `Cc1ncc(CO)c(C)c1O`, the survivor count runs as follows: (T/C endpoint: median survival time, dose: 512.0 mg/kg/injection, schedule: Q01DX005 (ip), vehicle: Klucel (hydroxypropylcellulose) (HPC)) 0 of 10; (T/C endpoint: median survival time, dose: 1024.0 mg/kg/injection, schedule: Q01DX005 (ip), vehicle: Klucel (hydroxypropylcellulose) (HPC)) 0 of 10.

As for `N[C@@H](Cc1ccc(N(CCCl)CCCl)cc1)C(=O)O`, the T/C is, setting by setting: (T/C endpoint: mean survival time, dose: 5.0 mg/kg/injection, schedule: Q01DX009 (ip), vehicle: saline) 136 % of control; (T/C endpoint: mean survival time, dose: 7.5 mg/kg/injection, schedule: Q01DX009 (ip), vehicle: saline) 142 % of control.

With `COc1ccc2c(c1)CCC(c1ccccc1)=C2c1ccc(OCCN2CCCC2)cc1`, the T/C (T/C endpoint: median survival time, dose: 48.0 mg/kg/injection, schedule: Q01DX005 (ip), vehicle: Klucel (hydroxypropylcellulose) (HPC)) was 148 % of control [9 of 10 alive]. Besides, the survivor count (T/C endpoint: median survival time, dose: 96.0 mg/kg/injection, schedule: Q01DX005 (ip), vehicle: Klucel (hydroxypropylcellulose) (HPC)) is 10 of 10.

As for `NC(CSC(c1ccccc1)(c1ccccc1)c1ccccc1)C(=O)O` (configuration not stated), the T/C (T/C endpoint: median survival time, dose: 32.0 mg/kg/injection, schedule: Q01DX005 (ip), vehicle: Klucel (hydroxypropylcellulose) (HPC)) is 126 % of control and the T/C (T/C endpoint: median survival time, dose: 64.0 mg/kg/injection, schedule: Q01DX005 (ip), vehicle: Klucel (hydroxypropylcellulose) (HPC)) is 133 % of control. Moreover, the survivor count is listed as 9 of 10 (T/C endpoint: median survival time, dose: 128.0 mg/kg/injection, schedule: Q01DX005 (ip), vehicle: Klucel (hydroxypropylcellulose) (HPC)) and 0 of 10 (T/C endpoint: median survival time, dose: 256.0 mg/kg/injection, schedule: Q01DX005 (ip), vehicle: Klucel (hydroxypropylcellulose) (HPC)).

Regarding `Nc1nc2c(c(=O)[nH]1)N(C=O)C(CNc1ccc(C(=O)N[C@@H](CCC(=O)O)C(=O)O)cc1)CN2` (some centres not stated), under setting [2], the survivor count is 0 of 10 and 5 of 10.

For the compound `O=NN(CCCl)C(=O)NC1CCCCC1`, the T/C runs as follows: (T/C endpoint: median survival time, dose: 8.0 mg/kg/injection, schedule: Q01DX001 (ip), vehicle: other) 138 % of control; (T/C endpoint: median survival time, dose: 32.0 mg/kg/injection, schedule: Q01DX001 (ip), vehicle: saline + alcohol) 141 % of control. For the same compound, the survivor count reads like this: (T/C endpoint: median survival time, dose: 64.0 mg/kg/injection, schedule: Q01DX001 (ip), vehicle: other) 6 of 6; (T/C endpoint: median survival time, dose: 128.0 mg/kg/injection, schedule: Q01DX001 (ip), vehicle: other) 3 of 6.

For the compound `S=P(N1CC1)(N1CC1)N1CC1`, the T/C runs as follows: (T/C endpoint: mean survival time, dose: 2.0 mg/kg/injection, schedule: Q01DX009 (ip), vehicle: saline) 138 % of control; (T/C endpoint: mean survival time, dose: 8.0 mg/kg/injection, schedule: Q01DX009 (ip), vehicle: saline) 134 and 148 % of control.

As for `CN(N=O)C(=O)Nc1c[nH]c(=O)[nH]c1=O`, the survivor count (T/C endpoint: median survival time, dose: 256.0 mg/kg/injection, schedule: Q01DX005 (ip), vehicle: saline with Tween-80) is listed as 0 of 6.

As for `Nc1nc(F)nc2c1ncn2C1OC(COC=O)C(OC=O)C1O` (configuration not stated) (tested in a mixture with another compound), the T/C reads like this: (T/C endpoint: mean survival time, dose: 125.0 mg/kg/injection, schedule: Q01DX009 (ip), vehicle: saline) 138 % of control [9 of 10 alive]; (T/C endpoint: mean survival time, dose: 150.0 mg/kg/injection, schedule: Q01DX009 (ip), vehicle: saline) 142 % of control.

Turning to `O=NN(CCCl)C(=O)NC1CCC(=O)NC1=O` (configuration not stated), the T/C is, setting by setting: (T/C endpoint: median survival time, dose: 4.0 mg/kg/injection, schedule: Q01DX001 (ip), vehicle: DMSO) 126 % of control; (T/C endpoint: median survival time, dose: 4.0 mg/kg/injection, schedule: Q01DX001 (ip), vehicle: saline + alcohol) 129 % of control; (T/C endpoint: median survival time, dose: 4.0 mg/kg/injection, schedule: Q01DX001 (oral), vehicle: saline + alcohol) 136 % of control. Also, the survivor count (T/C endpoint: median survival time, dose: 64.0 mg/kg/injection, schedule: Q01DX001 (ip), vehicle: DMSO) is given as 3 of 4.

`O=c1n(CC2CO2)c(=O)n(CC2CO2)c(=O)n1CC1CO1` (configuration not stated): the T/C (T/C endpoint: median survival time, dose: 25.6 mg/kg/injection, schedule: Q01DX009 (ip), vehicle: saline) was 128 % of control; the T/C (T/C endpoint: median survival time, dose: 30.0 mg/kg/injection, schedule: Q01DX009 (ip), vehicle: saline) is 135 % of control; the T/C (T/C endpoint: median survival time, dose: 32.0 mg/kg/injection, schedule: Q01DX009 (ip), vehicle: saline) is 145 % of control; the T/C (T/C endpoint: median survival time, dose: 40.0 mg/kg/injection, schedule: Q01DX009 (ip), vehicle: saline) was 132 % of control; the T/C (T/C endpoint: median survival time, dose: 96.0 mg/kg/injection, schedule: Q01DX001 (ip), vehicle: saline) is 126 % of control; the T/C (T/C endpoint: median survival time, dose: 120.0 mg/kg/injection, schedule: Q01DX009 (ip), vehicle: saline) is 141 % of control. Also, the T/C (T/C endpoint: median survival time, dose: 150.0 mg/kg/injection, schedule: Q01DX009 (ip), vehicle: saline) was 139 % of control [9 of 10 alive]. Moreover, the survivor count (T/C endpoint: median survival time, dose: 120.0 mg/kg/injection, schedule: Q01DX001 (ip), vehicle: saline) is given as 6 of 8 and the survivor count (T/C endpoint: median survival time, dose: 150.0 mg/kg/injection, schedule: Q01DX001 (ip), vehicle: saline) was 1 of 8.

On to `COS(C)(=O)=O`, for which the T/C by setting is: under setting [1], 127 % of control; (T/C endpoint: median survival time, dose: 64.0 mg/kg/injection, schedule: Q01DX005 (ip), vehicle: saline) 138 % of control.

`CN(C)/N=N/c1[nH]ncc1C(N)=O`: for the setting “T/C endpoint: median survival time, dose: 64.0 mg/kg/injection, schedule: Q01DX005 (ip), vehicle: saline with Tween-80”, the T/C is 142 % of control. For the same compound, the survivor count (T/C endpoint: median survival time, dose: 512.0 mg/kg/injection, schedule: Q01DX005 (ip), vehicle: saline with Tween-80) was 3 of 6.

With `CN(N=O)C(N)=O`, the T/C was 141 % of control (T/C endpoint: median survival time, dose: 8.0 mg/kg/injection, schedule: Q01DX009 (ip), vehicle: saline + alcohol) and 131 % of control (T/C endpoint: median survival time, dose: 160.0 mg/kg/injection, schedule: Q01DX001 (ip), vehicle: saline + alcohol). The survivor count (T/C endpoint: median survival time, dose: 160.0 mg/kg/injection, schedule: Q01DX001 (ip), vehicle: saline) is 7 of 10 and the survivor count under setting [3] is given as 0 of 10.

For the compound `COc1cc([C@@H]2c3cc4c(cc3[C@@H](OC3OC5CO[C@@H](c6cccs6)OC5C(O)C3O)[C@H]3COC(=O)[C@H]23)OCO4)cc(OC)c1O` (some centres not stated), the survivor count (T/C endpoint: median survival time, dose: 8.0 mg/kg/injection, schedule: Q01DX009 (ip), vehicle: saline) is recorded as 5 of 6.

As for `O=C1C=CN(C2OC(CO)C(O)C2O)C(=O)C1` (configuration not stated), the T/C by setting is: (T/C endpoint: mean survival time, dose: 11.0 mg/kg/injection, schedule: Q01DX009 (ip), vehicle: saline) 135 % of control; (T/C endpoint: mean survival time, dose: 16.0 mg/kg/injection, schedule: Q01DX009 (ip), vehicle: saline) 145 % of control; (T/C endpoint: mean survival time, dose: 22.0 mg/kg/injection, schedule: Q01DX009 (ip), vehicle: saline) 144 % of control; (T/C endpoint: median survival time, dose: 12.5 mg/kg/injection, schedule: Q01DX009 (ip), vehicle: saline) 135 % of control; (T/C endpoint: median survival time, dose: 25.0 mg/kg/injection, schedule: Q01DX009 (ip), vehicle: saline) 140 % of control; (T/C endpoint: median survival time, dose: 50.0 mg/kg/injection, schedule: Q01DX009 (ip), vehicle: saline) 136 % of control.

For the compound `Nc1n[nH]c(N)n1`, under setting [2], the T/C was 129 % of control.

For the compound `O=P1(N(CCCl)CCCl)NC(OO)CCO1` (configuration not stated), under setting [3], the survivor count is given as 2 of 10.
